From paper PMC10520872
No constants are given. Whether binding was seen depends on the method and setting. Binding calls can cover weak binding; strength is not graded here. Tags and fused reporters may be left off the sequences shown. For some of these results: Binding seen in cells or lysates may run through a third protein.

What was measured:
[1] = molecular target: T1, Mst77F-V5 (male-specific transcript 77F, recombinant full-length with a C-terminal V5 tag) (Drosophila melanogaster) (UniProt P16909); test: co-sedimentation; glycerol gradient sedimentation of recombinant proteins; substoichiometric (limiting) APL with Mst77F and/or purified core histones (Fig. S3C-E); both purified
T1 sequence: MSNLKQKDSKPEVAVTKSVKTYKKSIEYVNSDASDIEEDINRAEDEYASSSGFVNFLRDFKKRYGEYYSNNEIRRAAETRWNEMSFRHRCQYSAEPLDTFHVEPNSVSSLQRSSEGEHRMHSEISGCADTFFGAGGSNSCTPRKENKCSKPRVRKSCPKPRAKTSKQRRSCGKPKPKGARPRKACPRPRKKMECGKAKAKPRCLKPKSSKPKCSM

[2] = molecular target: T1, Mst77F-V5 (male-specific transcript 77F, recombinant full-length with a C-terminal V5 tag) (Drosophila melanogaster); test: SEC; size-exclusion chromatography of the APL-Mst77F-V5 complex in the absence of acceptor DNA; fractions analysed by western blot (Fig. S3B); both purified
[3] = molecular target: T1, Mst77F-V5 (male-specific transcript 77F, recombinant full-length with a C-terminal V5 tag) (Drosophila melanogaster); test: co-IP; co-immunoprecipitation of recombinant proteins with free Mst77F-V5 in solution (Fig. S1C); details in Supplementary Experimental Procedures; both purified

binding [1]	binding [2]	binding [3]	Substance
binds	binds		FLAG-APL (recombinant APOLLO) (Drosophila melanogaster)
		binds	recombinant TAP/p32 (HIV-1 Tat-associated protein/p32) (Drosophila)
		binds	FLAG-ARTS (recombinant ARTEMIS) (Drosophila melanogaster)
